The record followed here is publication PMC10901781.

Sequences of proteins named here, by UniProt entry; tags and fusion partners are left off.
UniProt Q03347: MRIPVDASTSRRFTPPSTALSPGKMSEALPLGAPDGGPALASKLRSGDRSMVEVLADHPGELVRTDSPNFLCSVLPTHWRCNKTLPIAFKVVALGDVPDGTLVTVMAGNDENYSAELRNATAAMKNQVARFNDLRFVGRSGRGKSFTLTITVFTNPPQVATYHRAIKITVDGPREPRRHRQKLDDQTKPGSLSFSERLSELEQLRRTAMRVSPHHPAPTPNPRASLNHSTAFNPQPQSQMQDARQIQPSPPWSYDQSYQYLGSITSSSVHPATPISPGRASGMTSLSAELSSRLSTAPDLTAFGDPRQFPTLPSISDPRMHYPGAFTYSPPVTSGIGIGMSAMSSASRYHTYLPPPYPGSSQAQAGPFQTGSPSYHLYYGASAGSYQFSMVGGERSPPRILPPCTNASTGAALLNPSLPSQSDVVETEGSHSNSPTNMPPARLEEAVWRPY
UniProt Q01196: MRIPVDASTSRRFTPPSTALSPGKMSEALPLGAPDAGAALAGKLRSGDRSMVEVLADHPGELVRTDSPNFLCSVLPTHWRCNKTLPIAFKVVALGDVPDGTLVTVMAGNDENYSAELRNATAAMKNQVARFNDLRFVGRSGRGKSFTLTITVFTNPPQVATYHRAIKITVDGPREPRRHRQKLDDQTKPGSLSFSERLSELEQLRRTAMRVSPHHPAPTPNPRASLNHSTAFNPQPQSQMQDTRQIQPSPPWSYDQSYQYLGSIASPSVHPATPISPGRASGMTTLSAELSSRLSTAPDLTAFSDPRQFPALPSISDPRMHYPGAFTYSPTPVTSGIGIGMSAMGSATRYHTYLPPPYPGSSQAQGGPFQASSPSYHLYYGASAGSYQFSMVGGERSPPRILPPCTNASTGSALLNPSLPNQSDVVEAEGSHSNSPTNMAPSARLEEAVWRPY

Test [1] has as its target T1, Phf6 (mouse (endogenous in spleen and bone marrow cells)) (UniProt Q9D4J7).
T1 sequence: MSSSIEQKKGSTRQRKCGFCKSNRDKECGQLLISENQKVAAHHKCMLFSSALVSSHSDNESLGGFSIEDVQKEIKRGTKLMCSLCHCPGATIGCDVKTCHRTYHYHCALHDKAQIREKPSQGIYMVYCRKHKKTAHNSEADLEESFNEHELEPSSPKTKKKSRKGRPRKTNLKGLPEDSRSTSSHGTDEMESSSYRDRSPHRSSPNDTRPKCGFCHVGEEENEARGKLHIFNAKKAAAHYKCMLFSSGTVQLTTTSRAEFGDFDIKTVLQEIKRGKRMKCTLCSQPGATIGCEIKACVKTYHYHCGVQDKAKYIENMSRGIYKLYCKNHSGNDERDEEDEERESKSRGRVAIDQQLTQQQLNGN
Nature of the test: co-IP; reciprocal IPs of endogenous Phf6 and Runx1, mouse spleen and bone marrow protein extracts; IgG control; western blot.

Test [2] concerns the target T2, PHF6 (human (endogenous in THP-1)) (UniProt Q8IWS0).
T2 sequence: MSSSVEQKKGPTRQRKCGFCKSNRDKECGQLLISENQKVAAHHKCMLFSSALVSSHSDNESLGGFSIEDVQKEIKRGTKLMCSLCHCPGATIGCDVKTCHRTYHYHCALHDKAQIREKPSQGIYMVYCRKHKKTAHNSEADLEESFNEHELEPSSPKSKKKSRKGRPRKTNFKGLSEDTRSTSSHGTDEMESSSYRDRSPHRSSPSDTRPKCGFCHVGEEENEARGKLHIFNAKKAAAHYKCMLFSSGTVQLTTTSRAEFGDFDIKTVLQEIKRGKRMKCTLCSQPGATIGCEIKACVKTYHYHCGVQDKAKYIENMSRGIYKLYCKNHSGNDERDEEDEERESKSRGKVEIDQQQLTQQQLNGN
Nature of the test: co-IP; endogenous proteins, THP-1 nuclear protein extracts; agarose-conjugated anti-PHF6 or anti-RUNX1 antibody, IgG control; 4 °C overnight, five washes of 1x PBS with 1% NP-40; western blot.

No constants are given. Whether binding was seen depends on the method and setting. In cells and extracts the contact can be indirect. Some entries that bind do so weakly or less than the wild type.

Consider Runx1 (from UniProt Q03347 1-451), for which the binding entry in test [1] was “binds”.

On to RUNX1 (from UniProt Q01196 1-453), for which the binding result in test [2] is reported as “binds”.
